The list shows a part of the results.
Key:
Assay in all cases: log2 fold change, soluble protein after heating vs DMSO (PISA); higher = thermal stabilisation; K562 cells, 10 uM, 30 min; active = over 0.2 and 3.5 SD of the protein, either way, in both replicates (recomputed)
[1] = compound: CC[C@@H]1C(=O)N(C)c2cnc(Nc3ccc(C(=O)NC4CCN(C)CC4)cc3OC)nc2N1C1CCCC1
Summary of the method: (§1)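 K562 cells at 2×10^6 cells/mL were treated with 10 μM compound for 30 min. Aliquots were heated for 3 min across 48°C-58°C, pooled, and extracted in PBS with 0.5% NP-40 at 4°C; soluble protein was the supernatant after 21,000xg for 90 min. Soluble protein was quantified by TMTpro 16plex LC-MS/MS with channel sums equalised, and reported as log2 fold change in thermal stability against DMSO controls, with values from duplicates.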

Protein sequences, listed by entry. Tags and fused reporters are not part of them. Lines headed by an entry give the natural chain unless they say otherwise; changes in a name come on top.
UniProt Q96EQ0: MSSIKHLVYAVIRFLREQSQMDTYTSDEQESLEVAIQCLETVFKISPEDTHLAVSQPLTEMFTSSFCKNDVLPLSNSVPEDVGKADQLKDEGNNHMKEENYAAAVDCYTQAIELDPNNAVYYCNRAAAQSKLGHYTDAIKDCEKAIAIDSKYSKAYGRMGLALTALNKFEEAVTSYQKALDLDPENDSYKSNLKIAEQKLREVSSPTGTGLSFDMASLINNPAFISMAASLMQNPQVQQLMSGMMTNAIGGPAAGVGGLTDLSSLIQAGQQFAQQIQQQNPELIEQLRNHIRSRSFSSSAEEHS
UniProt Q15427: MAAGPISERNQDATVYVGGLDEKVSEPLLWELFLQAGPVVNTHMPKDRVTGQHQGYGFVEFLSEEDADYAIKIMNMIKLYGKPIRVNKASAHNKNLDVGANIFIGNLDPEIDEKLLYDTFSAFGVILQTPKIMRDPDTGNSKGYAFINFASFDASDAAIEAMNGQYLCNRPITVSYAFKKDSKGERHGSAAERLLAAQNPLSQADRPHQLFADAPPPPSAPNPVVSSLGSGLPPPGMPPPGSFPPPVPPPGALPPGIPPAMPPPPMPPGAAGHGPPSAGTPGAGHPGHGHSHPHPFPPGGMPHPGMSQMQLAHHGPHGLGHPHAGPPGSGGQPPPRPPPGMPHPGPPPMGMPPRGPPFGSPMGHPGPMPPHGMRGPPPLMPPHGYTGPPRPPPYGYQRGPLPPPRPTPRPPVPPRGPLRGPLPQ
UniProt Q9HD40: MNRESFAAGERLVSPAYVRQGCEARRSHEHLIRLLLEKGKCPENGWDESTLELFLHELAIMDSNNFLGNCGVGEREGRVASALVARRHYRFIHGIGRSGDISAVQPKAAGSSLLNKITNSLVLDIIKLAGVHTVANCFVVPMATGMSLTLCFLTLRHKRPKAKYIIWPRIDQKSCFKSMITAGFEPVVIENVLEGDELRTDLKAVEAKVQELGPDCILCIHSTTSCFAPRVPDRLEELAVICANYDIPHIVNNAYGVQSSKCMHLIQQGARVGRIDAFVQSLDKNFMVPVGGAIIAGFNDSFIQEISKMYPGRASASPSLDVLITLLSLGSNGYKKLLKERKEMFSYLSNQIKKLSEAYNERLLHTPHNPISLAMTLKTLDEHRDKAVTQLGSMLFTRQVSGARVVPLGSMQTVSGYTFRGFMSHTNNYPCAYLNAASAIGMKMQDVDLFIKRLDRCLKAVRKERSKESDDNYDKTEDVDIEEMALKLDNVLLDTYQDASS
UniProt P05543: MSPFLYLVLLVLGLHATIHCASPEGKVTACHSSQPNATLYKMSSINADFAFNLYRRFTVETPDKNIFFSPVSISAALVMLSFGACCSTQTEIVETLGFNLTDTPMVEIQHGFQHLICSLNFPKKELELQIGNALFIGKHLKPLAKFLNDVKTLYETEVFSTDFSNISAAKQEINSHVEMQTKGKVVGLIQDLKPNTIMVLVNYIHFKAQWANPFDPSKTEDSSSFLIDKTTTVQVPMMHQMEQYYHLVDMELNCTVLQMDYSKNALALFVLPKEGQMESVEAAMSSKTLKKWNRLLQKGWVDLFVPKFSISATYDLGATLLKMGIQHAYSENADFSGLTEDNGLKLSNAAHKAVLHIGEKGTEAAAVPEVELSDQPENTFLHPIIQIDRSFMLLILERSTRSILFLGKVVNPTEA
UniProt Q13530: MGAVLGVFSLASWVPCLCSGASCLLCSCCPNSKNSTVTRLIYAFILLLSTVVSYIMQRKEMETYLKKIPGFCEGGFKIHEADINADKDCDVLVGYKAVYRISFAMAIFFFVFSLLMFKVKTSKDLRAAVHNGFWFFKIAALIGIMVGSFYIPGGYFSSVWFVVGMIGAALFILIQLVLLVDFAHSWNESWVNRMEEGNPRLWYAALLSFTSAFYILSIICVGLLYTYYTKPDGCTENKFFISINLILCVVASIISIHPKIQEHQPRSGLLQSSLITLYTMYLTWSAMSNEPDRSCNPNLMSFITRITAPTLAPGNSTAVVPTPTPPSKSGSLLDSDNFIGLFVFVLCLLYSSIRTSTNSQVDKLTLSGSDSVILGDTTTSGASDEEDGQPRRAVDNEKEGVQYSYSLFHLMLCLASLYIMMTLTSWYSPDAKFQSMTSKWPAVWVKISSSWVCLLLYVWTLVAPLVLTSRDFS
UniProt Q8NC51: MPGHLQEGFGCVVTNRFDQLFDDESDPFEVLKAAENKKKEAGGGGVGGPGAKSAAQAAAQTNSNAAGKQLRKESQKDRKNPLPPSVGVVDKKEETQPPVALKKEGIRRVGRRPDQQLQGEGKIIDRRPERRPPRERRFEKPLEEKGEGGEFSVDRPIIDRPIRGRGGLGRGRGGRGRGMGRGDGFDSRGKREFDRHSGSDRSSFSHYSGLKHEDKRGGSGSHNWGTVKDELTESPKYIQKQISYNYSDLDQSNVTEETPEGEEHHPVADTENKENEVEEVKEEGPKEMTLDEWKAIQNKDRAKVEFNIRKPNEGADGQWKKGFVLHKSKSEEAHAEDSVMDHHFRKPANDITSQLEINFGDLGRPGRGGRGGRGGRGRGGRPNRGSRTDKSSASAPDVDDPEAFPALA
UniProt Q8NEM2: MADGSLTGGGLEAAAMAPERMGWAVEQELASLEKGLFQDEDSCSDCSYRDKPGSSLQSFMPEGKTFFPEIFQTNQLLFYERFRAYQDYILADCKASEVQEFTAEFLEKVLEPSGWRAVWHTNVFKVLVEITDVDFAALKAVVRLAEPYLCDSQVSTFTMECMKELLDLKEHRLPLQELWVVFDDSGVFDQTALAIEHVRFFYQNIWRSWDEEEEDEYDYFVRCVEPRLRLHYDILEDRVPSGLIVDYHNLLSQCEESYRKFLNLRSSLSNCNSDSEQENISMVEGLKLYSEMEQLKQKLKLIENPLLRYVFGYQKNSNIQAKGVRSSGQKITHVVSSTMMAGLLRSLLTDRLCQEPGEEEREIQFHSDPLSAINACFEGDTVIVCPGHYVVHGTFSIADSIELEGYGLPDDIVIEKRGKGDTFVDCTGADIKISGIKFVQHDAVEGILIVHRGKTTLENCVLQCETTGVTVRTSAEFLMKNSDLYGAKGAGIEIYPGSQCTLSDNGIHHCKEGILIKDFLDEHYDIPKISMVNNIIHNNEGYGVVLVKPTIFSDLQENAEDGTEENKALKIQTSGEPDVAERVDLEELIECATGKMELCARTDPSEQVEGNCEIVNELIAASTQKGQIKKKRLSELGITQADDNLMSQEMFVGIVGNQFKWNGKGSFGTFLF
UniProt Q16181: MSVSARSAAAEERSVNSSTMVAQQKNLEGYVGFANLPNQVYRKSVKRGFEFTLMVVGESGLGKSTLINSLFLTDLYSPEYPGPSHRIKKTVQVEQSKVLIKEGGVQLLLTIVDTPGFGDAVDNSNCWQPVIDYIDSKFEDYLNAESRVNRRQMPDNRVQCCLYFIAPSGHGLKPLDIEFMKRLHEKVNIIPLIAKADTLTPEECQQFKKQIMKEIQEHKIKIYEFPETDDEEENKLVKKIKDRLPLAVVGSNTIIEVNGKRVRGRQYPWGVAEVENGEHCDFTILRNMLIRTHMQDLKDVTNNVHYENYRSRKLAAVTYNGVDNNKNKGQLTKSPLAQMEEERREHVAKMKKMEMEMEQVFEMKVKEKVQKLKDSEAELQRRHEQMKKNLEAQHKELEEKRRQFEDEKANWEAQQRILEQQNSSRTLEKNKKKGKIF
UniProt Q68CR1: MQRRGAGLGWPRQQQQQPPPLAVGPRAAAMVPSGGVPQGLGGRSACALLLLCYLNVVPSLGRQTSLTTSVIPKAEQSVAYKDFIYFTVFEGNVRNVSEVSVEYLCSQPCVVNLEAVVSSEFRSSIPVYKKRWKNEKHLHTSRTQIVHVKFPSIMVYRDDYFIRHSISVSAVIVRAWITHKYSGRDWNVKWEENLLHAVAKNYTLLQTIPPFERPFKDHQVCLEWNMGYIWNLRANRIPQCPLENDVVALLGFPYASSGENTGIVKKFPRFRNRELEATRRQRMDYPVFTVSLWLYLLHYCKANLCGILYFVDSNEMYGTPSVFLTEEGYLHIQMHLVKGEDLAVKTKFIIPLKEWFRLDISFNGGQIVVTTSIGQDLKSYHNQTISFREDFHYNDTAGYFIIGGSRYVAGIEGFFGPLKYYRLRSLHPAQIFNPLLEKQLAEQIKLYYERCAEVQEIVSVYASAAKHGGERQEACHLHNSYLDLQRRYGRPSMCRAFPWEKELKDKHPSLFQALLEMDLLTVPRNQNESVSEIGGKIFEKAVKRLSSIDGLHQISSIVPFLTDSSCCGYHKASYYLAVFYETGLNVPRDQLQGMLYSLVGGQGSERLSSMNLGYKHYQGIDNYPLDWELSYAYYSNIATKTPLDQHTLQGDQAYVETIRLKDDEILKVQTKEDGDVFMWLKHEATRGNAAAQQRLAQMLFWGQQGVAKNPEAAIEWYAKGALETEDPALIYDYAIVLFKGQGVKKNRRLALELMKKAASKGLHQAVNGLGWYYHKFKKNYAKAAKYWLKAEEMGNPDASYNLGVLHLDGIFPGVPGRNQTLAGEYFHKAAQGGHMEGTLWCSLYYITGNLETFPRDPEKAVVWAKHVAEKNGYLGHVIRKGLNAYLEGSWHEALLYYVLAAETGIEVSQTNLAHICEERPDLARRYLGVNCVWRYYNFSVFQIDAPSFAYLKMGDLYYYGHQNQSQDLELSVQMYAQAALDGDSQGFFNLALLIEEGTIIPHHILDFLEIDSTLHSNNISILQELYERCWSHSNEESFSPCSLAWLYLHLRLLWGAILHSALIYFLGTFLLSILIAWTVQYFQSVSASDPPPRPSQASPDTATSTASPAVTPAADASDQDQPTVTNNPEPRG
UniProt Q86TU7: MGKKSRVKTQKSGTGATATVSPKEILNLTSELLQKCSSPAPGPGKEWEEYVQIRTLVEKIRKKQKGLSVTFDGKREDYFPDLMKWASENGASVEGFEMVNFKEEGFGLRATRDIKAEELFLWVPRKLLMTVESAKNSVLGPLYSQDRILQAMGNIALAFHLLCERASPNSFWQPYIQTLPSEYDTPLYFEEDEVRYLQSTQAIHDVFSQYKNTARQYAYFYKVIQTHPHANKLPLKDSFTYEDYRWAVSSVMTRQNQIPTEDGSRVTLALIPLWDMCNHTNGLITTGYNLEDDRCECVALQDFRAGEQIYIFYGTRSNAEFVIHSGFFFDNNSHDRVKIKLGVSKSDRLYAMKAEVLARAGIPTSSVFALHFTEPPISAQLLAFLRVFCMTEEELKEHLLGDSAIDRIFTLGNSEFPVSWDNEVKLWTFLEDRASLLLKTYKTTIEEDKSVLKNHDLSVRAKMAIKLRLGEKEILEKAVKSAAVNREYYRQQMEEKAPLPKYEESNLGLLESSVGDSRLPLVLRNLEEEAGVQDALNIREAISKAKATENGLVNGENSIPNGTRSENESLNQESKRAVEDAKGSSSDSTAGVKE
UniProt O43765: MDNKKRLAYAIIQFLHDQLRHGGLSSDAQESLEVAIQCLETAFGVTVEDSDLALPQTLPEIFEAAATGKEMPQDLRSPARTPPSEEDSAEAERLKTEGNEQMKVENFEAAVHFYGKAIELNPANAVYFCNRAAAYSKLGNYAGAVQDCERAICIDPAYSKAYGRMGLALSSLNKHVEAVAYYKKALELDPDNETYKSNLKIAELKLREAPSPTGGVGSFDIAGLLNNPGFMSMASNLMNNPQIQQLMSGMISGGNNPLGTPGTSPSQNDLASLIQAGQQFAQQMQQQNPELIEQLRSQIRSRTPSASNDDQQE
UniProt Q8NBJ9: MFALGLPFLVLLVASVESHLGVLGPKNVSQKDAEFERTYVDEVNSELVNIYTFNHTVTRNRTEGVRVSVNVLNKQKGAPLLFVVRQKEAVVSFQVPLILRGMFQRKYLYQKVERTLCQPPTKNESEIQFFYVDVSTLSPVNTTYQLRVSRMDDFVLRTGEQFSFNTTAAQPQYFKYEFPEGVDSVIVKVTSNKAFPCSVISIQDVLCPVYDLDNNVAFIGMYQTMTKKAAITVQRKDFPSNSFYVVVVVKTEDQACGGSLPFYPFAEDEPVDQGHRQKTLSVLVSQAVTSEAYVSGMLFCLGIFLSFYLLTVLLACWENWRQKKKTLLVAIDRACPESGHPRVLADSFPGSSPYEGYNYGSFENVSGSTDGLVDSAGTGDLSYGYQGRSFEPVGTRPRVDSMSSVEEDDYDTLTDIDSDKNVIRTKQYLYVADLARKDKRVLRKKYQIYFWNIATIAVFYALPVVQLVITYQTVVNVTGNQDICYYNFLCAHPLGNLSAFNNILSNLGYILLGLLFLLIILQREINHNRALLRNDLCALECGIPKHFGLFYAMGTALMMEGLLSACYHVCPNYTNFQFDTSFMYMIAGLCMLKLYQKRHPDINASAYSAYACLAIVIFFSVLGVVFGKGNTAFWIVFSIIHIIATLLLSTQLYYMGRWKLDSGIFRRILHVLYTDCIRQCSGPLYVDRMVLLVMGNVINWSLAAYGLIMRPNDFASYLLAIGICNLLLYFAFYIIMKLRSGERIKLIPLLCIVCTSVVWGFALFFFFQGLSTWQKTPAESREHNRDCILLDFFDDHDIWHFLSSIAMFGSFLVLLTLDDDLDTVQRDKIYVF

volasertib = compound: CC[C@@H]1C(=O)N(C)c2cnc(Nc3ccc(C(=O)N[C@H]4CC[C@H](N5CCN(CC6CC6)CC5)CC4)cc3OC)nc2N1C(C)C [volasertib]
Summary of the method: as §1

[2] = compound: CC[C@H](C)N1C=C(C2=C(C=C(C=C21)C3=CN=C(C=C3)N4CCNCC4)C(=O)NCC5=C(C=C(NC5=O)C)C)C
Summary of the method: as §1

epoxomicin = compound: CC[C@H](C)[C@@H](C(=O)N[C@@H]([C@@H](C)O)C(=O)N[C@@H](CC(C)C)C(=O)[C@]1(CO1)C)NC(=O)[C@H]([C@@H](C)CC)N(C)C(=O)C [epoxomicin]
Summary of the method: as §1

[3] = compound: CCn1cc(-c2ccnc3[nH]c(-c4cccc(CN(C)C)c4)cc23)c(-c2ccc(NC(=O)N(C)C)cc2)n1
Summary of the method: as §1

[4] = compound: CN(C)CC(=O)Nc1ccc2[nH]c(=O)c3ccccc3c2c1
Summary of the method: as §1

[5] = compound: CN1C2=C(C3=C1C(=O)N(N=C3)CC4=CC(=CC=C4)N)SC(=C2)S(=O)C
Summary of the method: as §1

[6] = compound: CN1CCC(CNc2ccc3ncc(-c4cccc(OC(F)(F)F)c4)n3n2)CC1
Summary of the method: as §1

saracatinib = compound: CN1CCN(CCOc2cc(OC3CCOCC3)c3c(Nc4c(Cl)ccc5c4OCO5)ncnc3c2)CC1 [saracatinib]
Summary of the method: as §1

sotrastaurin = compound: CN1CCN(c2nc(C3=C(c4c[nH]c5ccccc45)C(=O)NC3=O)c3ccccc3n2)CC1 [sotrastaurin]
Summary of the method: as §1

Tubastatin A = compound: CN1CCc2c(c3ccccc3n2Cc2ccc(C(=O)NO)cc2)C1 [Tubastatin A]
Summary of the method: as §1

[7] = compound: CNC(=O)C1=CC=CC=C1NC2=NC(=NC=C2Cl)NC3=C(C=C(C=C3)N4CCOCC4)OC
Summary of the method: as §1

defactinib = compound: CNC(=O)c1ccc(Nc2ncc(C(F)(F)F)c(NCc3nccnc3N(C)S(C)(=O)=O)n2)cc1 [defactinib]
Summary of the method: as §1

rucaparib = compound: CNCc1ccc(-c2[nH]c3cc(F)cc4c3c2CCNC4=O)cc1 [rucaparib]
Summary of the method: as §1

[8] = compound: CNc1nc(-c2ccc3c(N)n[nH]c3c2)cc(N2C[C@@H](C(=O)NC3CCCCC3)CC[C@H]2C)n1
Summary of the method: as §1

encorafenib = compound: COC(=O)N[C@@H](C)CNc1nccc(-c2cn(C(C)C)nc2-c2cc(Cl)cc(NS(C)(=O)=O)c2F)n1 [encorafenib]
Summary of the method: as §1

[9] = compound: COC(=O)[C@H](CCSC)NC(=O)C1=C(C=C(C=C1)NC[C@H](CS)N)C2=CC=CC=C2
Summary of the method: as §1

[10] = compound: CCn1c(C(=O)N(C2CC2)C2CC2)cc2c3c(ncn3C)c(Nc3cc(C)n(C)n3)nc21
Summary of the method: as §1

rosiglitazone = compound: CN(CCOC1=CC=C(C=C1)C[C@H]2C(=O)NC(=O)S2)C3=CC=CC=N3 (racemic) [rosiglitazone]
Summary of the method: as §1

alvocidib = compound: CN1CC[C@H](c2c(O)cc(O)c3c(=O)cc(-c4ccccc4Cl)oc23)[C@H](O)C1 [alvocidib]
Summary of the method: as §1

Measured: log2 fold change

SGPL1 (UniProt O95470)
inactive: [1] 0 | volasertib -0.04 | [2] -0.002 | epoxomicin -0.066 | [3] 0.009 | [4] -0.023 | [5] 0.047 | [6] 0.189 | saracatinib -0.014 | sotrastaurin 0.03 | Tubastatin A -0.031 | [7] 0.064 | defactinib 0.012 | rucaparib 0.1 | [8] 0.015 | encorafenib 0.08 | [9] -0.157

SGTB (UniProt Q96EQ0)
inactive: [1] -0.002 | volasertib -0.065 | [2] 0.008 | epoxomicin 0.023 | [10] -0.016 | [3] -0.055 | [4] -0.003 | rosiglitazone -0.024 | [6] 0.102 | sotrastaurin 0.04 | alvocidib 0.014 | Tubastatin A 0.005 | [7] 0.047 | defactinib -0.023 | rucaparib -0.009 | encorafenib 0.015 | [9] -0.007

SF3B4 (UniProt Q15427)
inactive: [1] 0.044 | volasertib -0.025 | [2] 0 | epoxomicin 0 | [10] -0.069 | [3] 0.154 | [4] -0.068 | rosiglitazone -0.046 | [5] 0.162 | [6] 0.158 | saracatinib -0.035 | sotrastaurin 0.033 | alvocidib 0.095 | Tubastatin A 0.047 | [7] 0.034 | defactinib 0.11 | rucaparib 0.078 | [8] -0.084 | encorafenib 0.035 | [9] 0.042

SEPSECS (UniProt Q9HD40)
inactive: [1] 0.077 | volasertib -0.1 | [2] 0.006 | epoxomicin 0.061 | [10] -0.021 | [3] 0.064 | [4] 0.042 | rosiglitazone -0.032 | [5] -0.029 | [6] 0.087 | saracatinib 0.133 | sotrastaurin 0.039 | alvocidib 0 | Tubastatin A 0.006 | [7] -0.023 | defactinib -0.005 | rucaparib -0.015 | [8] 0.01 | encorafenib -0.046 | [9] -0.03

SERPINA7 (UniProt P05543)
inactive: [1] 0.055 | volasertib 0.309 | [2] 0.044 | [3] 0.036 | [4] -0.123 | [5] 0.255 | [6] 0.279 | saracatinib 0.339 | sotrastaurin 0.395 | Tubastatin A -0.169 | [7] 0.147 | defactinib 0.056 | rucaparib -0.145 | [8] 0.061 | encorafenib -0.085 | [9] 0.078
active: epoxomicin -0.68

SERINC3 (UniProt Q13530)
inactive: [1] 0.165 | volasertib 0.075 | [2] -0.144 | epoxomicin -0.092 | [3] -0.064 | [4] 0.043 | [5] -0.014 | [6] 0.046 | saracatinib 0.002 | sotrastaurin 0.119 | Tubastatin A -0.06 | [7] -0.043 | defactinib -0.016 | rucaparib 0.006 | [8] -0.216 | encorafenib -0.017 | [9] -0.065

SERBP1 isoform 3 (UniProt Q8NC51)
inactive: [1] 0.159 | volasertib -0.006 | [2] -0.007 | epoxomicin -0.089 | [10] -0.058 | [3] 0.076 | rosiglitazone -0.104 | [5] 0.137 | [6] 0.052 | saracatinib 0.06 | Tubastatin A -0.006 | [7] -0.083 | rucaparib 0.132 | [8] -0.12 | encorafenib 0.03

SERBP1 (UniProt Q8NC51)
inactive: [1] 0.091 | volasertib 0.163 | [2] -0.04 | epoxomicin -0.144 | [10] 0 | [3] 0.126 | [4] -0.071 | rosiglitazone -0.088 | [5] 0.096 | [6] 0.127 | saracatinib -0.064 | sotrastaurin 0.111 | alvocidib 0.128 | Tubastatin A 0.013 | [7] -0.028 | defactinib 0.102 | rucaparib 0.105 | [8] 0.015 | encorafenib 0.014 | [9] 0.011

SHCBP1 (UniProt Q8NEM2)
inactive: [1] -0.013 | volasertib -0.052 | [2] 0.102 | epoxomicin -0.008 | [3] 0.117 | [4] 0.111 | [5] 0.056 | [6] -0.139 | saracatinib -0.044 | sotrastaurin 0.017 | Tubastatin A 0.174 | [7] -0.061 | defactinib -0.194 | rucaparib -0.104 | [8] -0.081 | encorafenib 0.149 | [9] -0.018

SEPTIN7 (UniProt Q16181)
inactive: [1] -0.019 | volasertib -0.028 | [2] -0.003 | epoxomicin 0.027 | [10] 0.014 | [3] -0.003 | [4] 0.005 | rosiglitazone 0.028 | [5] -0.097 | [6] 0.006 | saracatinib 0.109 | sotrastaurin 0.025 | alvocidib -0.057 | Tubastatin A -0.005 | [7] -0.031 | defactinib -0.043 | rucaparib -0.086 | [8] 0.073 | encorafenib 0.012 | [9] 0.005

SEL1L3 (UniProt Q68CR1)
inactive: [1] -0.021 | volasertib -0.067 | [2] 0.087 | epoxomicin -0.01 | [10] -0.05 | [3] 0.024 | [4] -0.015 | rosiglitazone -0.044 | [5] 0.05 | [6] 0.282 | saracatinib -0.14 | sotrastaurin -0.104 | alvocidib 0.098 | Tubastatin A -0.009 | [7] 0.014 | defactinib -0.019 | rucaparib 0.021 | [8] 0.004 | encorafenib 0.051 | [9] -0.003

SETD3 (UniProt Q86TU7)
inactive: [1] -0.017 | volasertib -0.018 | [2] 0.055 | epoxomicin -0.024 | [3] -0.002 | [4] -0.02 | [5] -0.056 | [6] 0.06 | saracatinib 0.008 | sotrastaurin 0.012 | Tubastatin A -0.056 | [7] 0.014 | defactinib -0.004 | rucaparib 0.022 | [8] 0.032 | encorafenib -0.009 | [9] 0

SGTA (UniProt O43765)
inactive: [1] -0.05 | volasertib -0.159 | [2] 0.053 | epoxomicin 0.063 | [10] 0 | [3] -0.015 | [4] 0.015 | rosiglitazone 0.027 | [5] -0.055 | [6] -0.082 | saracatinib 0.003 | sotrastaurin -0.039 | alvocidib -0.047 | Tubastatin A 0.012 | [7] -0.007 | defactinib -0.075 | rucaparib -0.006 | [8] -0.033 | encorafenib 0.012 | [9] 0

SETDB1 (UniProt Q15047)
inactive: [1] -0.05 | volasertib -0.007 | [2] -0.476 | epoxomicin 0 | [10] -0.093 | [3] -0.095 | [4] 0.043 | [5] -0.055 | [6] -0.118 | saracatinib -0.041 | sotrastaurin -0.013 | alvocidib -0.055 | Tubastatin A 0.185 | [7] -0.067 | defactinib -0.068 | rucaparib 0.098 | [8] 0.055 | encorafenib -0.004 | [9] -0.032

SH2D1B (UniProt O14796)
active: saracatinib -1
inactive: [1] -0.068 | volasertib -0.029 | [2] 0.095 | epoxomicin 0.168 | [3] -0.068 | [4] -0.025 | [5] 0.235 | [6] -0.174 | sotrastaurin 0.05 | Tubastatin A -0.046 | [7] -0.214 | defactinib -0.06 | rucaparib 0.045 | [8] -0.026 | encorafenib 0.295 | [9] 0.242

2 records picked at random from those above:
SGTA (UniProt O43765)
inactive: [1] -0.05 | volasertib -0.159 | [2] 0.053 | epoxomicin 0.063 | [10] 0 | [3] -0.015 | [4] 0.015 | rosiglitazone 0.027 | [5] -0.055 | [6] -0.082 | saracatinib 0.003 | sotrastaurin -0.039 | alvocidib -0.047 | Tubastatin A 0.012 | [7] -0.007 | defactinib -0.075 | rucaparib -0.006 | [8] -0.033 | encorafenib 0.012 | [9] 0

SH2D1B (UniProt O14796)
active: saracatinib -1
inactive: [1] -0.068 | volasertib -0.029 | [2] 0.095 | epoxomicin 0.168 | [3] -0.068 | [4] -0.025 | [5] 0.235 | [6] -0.174 | sotrastaurin 0.05 | Tubastatin A -0.046 | [7] -0.214 | defactinib -0.06 | rucaparib 0.045 | [8] -0.026 | encorafenib 0.295 | [9] 0.242

Carrying on.

SIDT2 isoform 2 (UniProt Q8NBJ9)
inactive: [1] -0.035 | volasertib 0.055 | [2] -0.026 | epoxomicin 0.002 | [3] 0.069 | [4] -0.041 | [5] 0.024 | [6] -0.02 | saracatinib 0.08 | sotrastaurin 0.024 | Tubastatin A -0.083 | [7] 0.104 | defactinib -0.064 | rucaparib -0.002 | [8] -0.088 | encorafenib -0.053 | [9] -0.176

Reference: the supplement of paper PMC10849652
